Test results: US6777396B2, “Feed for livestock” (Ajinomoto Co., Inc., priority 2000, dated 2004)
At least one compound was matched to its structure with a doubt left.

Test system: weaned barrows
Test: Example 3: feeding trial in weaned piglets, glutamine and/or glutamic acid added to starter feed
Assay type: in vivo
Conditions: for body weight gain per day compared with C group (in words) / feed efficiency compared to the C group (in words): 15 to 21 days after weaning; for body weight gain per day, rank among groups (in words) / feed intake, rank among groups (in words): 1 day to 14 days after weaning, no statistical difference
Text: 120 weaned barrows were used and divided into 4 groups (30 animals for each group, 6 replications with 5 animals per replication), namely a control group (C), a glutamine alone administration group (GLN), a glutamic acid alone administration group (GLU) and a glutamine+glutamic acid mixture administration group (GLN+GLU). Piglets were weaned at 17 days of age in average. Also, the GLN group was provided with an experimental feed prepared by adding crystalline glutamine at 1.2% per feed weight to the starter feed, the GLU group with an experimental feed prepared by adding crystalline glutamic acid at 1.2% per feed weight to the starter feed, and the GLN+GLU group with an experimental feed prepared by adding glutamine and glutamic acid at 0.12% and 1.08%, respectively, per feed weight to the starter feed. After two weeks passed, a common feed was fed to all groups. Body weight and residual feed weight were measured to calculate feed intake, body weight gain and feed efficiency on the 14th and 21st days after the weaning.

Row | SMILES | body weight gain per day compared with C group (in words) | feed efficiency compared to the C group (in words) | body weight gain per day, rank among groups (in words) | feed intake, rank among groups (in words)
1 | N[C@@H](CCC(=O)O)C(=O)O [G, glutamic acid] | tended to increase | tendency was found to be improved | intermediate | the largest
2 | NC(=O)CC[C@H](N)C(=O)O [G, glutamine] | tended to increase | tendency was found to be improved | the smallest | the smallest
